From ChEMBL document CHEMBL3988442, “University of Dundee, Small-Polar-MMV Screening Library” (2021).

Protein sequences, listed by entry. Tags and fused reporters are not part of them. Residues count along the entry.
UniProt A4I591, 1-473: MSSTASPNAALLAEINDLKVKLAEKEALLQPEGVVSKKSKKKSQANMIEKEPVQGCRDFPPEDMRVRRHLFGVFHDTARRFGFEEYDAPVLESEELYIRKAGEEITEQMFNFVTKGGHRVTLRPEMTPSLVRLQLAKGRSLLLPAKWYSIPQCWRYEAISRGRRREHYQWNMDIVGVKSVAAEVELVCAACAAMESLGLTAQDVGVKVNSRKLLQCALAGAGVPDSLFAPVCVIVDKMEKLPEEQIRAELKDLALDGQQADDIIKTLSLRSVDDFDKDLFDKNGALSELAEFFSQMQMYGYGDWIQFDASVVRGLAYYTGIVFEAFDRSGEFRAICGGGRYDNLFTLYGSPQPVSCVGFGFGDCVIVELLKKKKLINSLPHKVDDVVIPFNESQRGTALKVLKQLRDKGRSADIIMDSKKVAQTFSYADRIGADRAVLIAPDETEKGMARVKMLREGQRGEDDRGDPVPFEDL
UniProt P9WPC5, whole entry: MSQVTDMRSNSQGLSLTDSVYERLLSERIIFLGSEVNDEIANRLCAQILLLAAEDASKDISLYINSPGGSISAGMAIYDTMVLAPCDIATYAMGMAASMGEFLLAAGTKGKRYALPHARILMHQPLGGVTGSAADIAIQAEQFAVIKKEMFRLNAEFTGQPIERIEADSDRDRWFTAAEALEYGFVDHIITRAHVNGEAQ
UniProt P9WPC3, whole entry partner: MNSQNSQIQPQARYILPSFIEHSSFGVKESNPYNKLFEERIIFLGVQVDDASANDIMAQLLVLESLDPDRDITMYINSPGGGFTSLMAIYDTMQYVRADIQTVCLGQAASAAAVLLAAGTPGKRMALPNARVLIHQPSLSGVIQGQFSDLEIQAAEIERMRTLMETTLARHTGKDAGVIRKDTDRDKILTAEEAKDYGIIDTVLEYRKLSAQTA

LiHisRS: 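Enzyme assay of histidyl-tRNA synthetase; the read-out is not stated. Target: Histidine-tRNA ligase, Leishmania infantum (UniProt A4I591). Compounds at 30 µM. The record gives no direction; compounds that gave an IC50 in retests scored well above the rest, so higher reads as stronger inhibition. The assay is labelled LdHisRS but filed under L. infantum. Size under these conditions: about 69,000 compounds, about 410 of them at 50% or above in at least one test.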
Toxoplasma: 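Assay of Toxoplasma gondii numbers, read through their beta-galactosidase reporter with a colour substrate. Compounds at 10 µM. The record gives no direction; the compounds picked for IC50 retests had high values, so higher reads as fewer parasites. Of about 67,000 compounds tested this way, about 260 (0.38%) reached 50% or more in at least one test.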
ClpP1P2: 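ClpP1P2, Mycobacterium tuberculosis (UniProt P9WPC5 and UniProt P9WPC3). Protease assay of ClpP1P2, read by the AMC dye that it sets free. Concentration: 50 µM. Direction is inferred from only a few compounds that gave an IC50; most scored high, so higher reads as stronger inhibition. Most other retested compounds had strongly negative values. About 69,000 compounds were tested under these conditions; 0.015% (about 10) showed 50% or more at least once.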
T. brucei: 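Whole-parasite assay of Trypanosoma brucei over 72 hours; the read-out is not stated. Compounds at 30 µM. Direction is inferred from retests: higher values go with stronger inhibition. Values scatter widely below zero; nearly all retest evidence comes from the higher of the two concentrations used. About 64,000 compounds were tested under these conditions; 1.5% (about 940) showed 50% or more at least once.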
Leishmania in macrophages: 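Cell assay of Leishmania donovani living inside macrophages; the read-out is not stated. Concentration: 30 µM. Direction is inferred from retests: higher values go with stronger inhibition. Size under these conditions: about 69,000 compounds, about 1,000 of them at 50% or above in at least one test.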

The filed quantity is “Percent Effect” (%).
The controls that fix the scale are not given in the record; negative values are as filed.
Compounds were drawn at random from those tested, without regard to their results.
Two or more numbers in one place are separate tests of the same structure; such repeats can differ widely.
A dash means the value is not listed here; it may have been measured.

| structure | LiHisRS | Toxoplasma | ClpP1P2 | T. brucei | Leishmania in macrophages |
|---|---|---|---|---|---|
| `CN(C1CCCCC1)S(=O)(=O)N1CCN(Cc2ccco2)CC1` | 16.67% | 1.467% | 4.339% | -16.25% | 0.7172% |
| `Cn1ccnc1CN1CCC2(CC1)CN(c1cncnc1)C(=O)CO2` | 3% | - | -2.341% | - | - |
| `CC1CN(C)c2ccccc2CN1C(=O)c1ccncc1F` (stereo not given) | 6.452% | -1.49% | 7.158% | -44.54% | -76.74% |
| `COC(=O)[C@H]1CN(C(=O)NC(C)C)CCN1C(=O)c1cccs1` | 22.22% | 8.52% | 5.628% | -5.536% | 12.06% |
| `CCCc1noc(CNC2CCCN(Cc3noc(C4CC4)n3)C2)n1` (stereo not given) | 6.195% | 2.874% | -17.68% | - | 27.89% |
| `COc1cccc(CC(=O)N2CC[C@@H]3[C@H](CC2)N(C)CCS3(=O)=O)c1` | 11.54% | - | 1.475% | - | - |
| `Cc1[nH]c2c(C)ccc(C)c2c1CC(=O)NCCCNc1cccnc1` | 14.17% | 1.712% | 5.915% | -27.14% | 2.737% |
| `COCCNC(=O)Nc1cccc(COCCOC(C)C)c1` | 20.43% | -5.571% | -11.89% | -18.56% | 7.63% |
| `CC(C)CN1CCS(=O)(=O)[C@@H]2CCN(S(=O)(=O)CC(C)C)CC[C@@H]21` | 15.79% | - | 11.02% | - | - |
| `COCCCNC(=O)C(C)n1nc(-c2ccco2)cc(N)c1=O` (stereo not given) | 5.369% | 1.556% | -10.29% | -12.69% | 6.56% |
| `COc1cccc(CNC[C@H]2COCc3nc4cccnc4n32)n1` | 25% | 5.788% | -4.766% | 17.75% | 24.2% |
| `Cc1nn(C(C)C)c(C)c1S(=O)(=O)Nc1ccc(C(=O)O)cc1` | 8.571% | -12.42% | -5.351% | -50.07% | -4.557% |
| `O=C(NC1CCCNC1=O)c1ccc2nc(-c3ccc(F)cc3)cn2c1` (stereo not given) | -9.677% | -2.403% | -6.179% | -54.21% | -35.28% |
| `CCCn1cc(NC2CCSCC2)cn1` | 22.12% | 1.949% | -0.6614% | -8.342% | -11.49% |
| `CC1CN(CC(=O)NC(=O)NCc2ccccc2)CCO1` (stereo not given) | 17.14% | 1.559% | 5.033% | 6.688% | 8.143% |
| `Cc1nc(C(=O)N2CCN(c3ncccn3)[C@@H]3CS(=O)(=O)C[C@@H]32)cs1` | 5.333% | - | -2.549% | - | - |
| `Cc1n[nH]c(C2CN(C(=O)c3ccc(Cl)o3)CCO2)n1` (stereo not given) | 11.2% | -0.9709% | -23.95% | 12.77% | 28.03% |
| `Cc1oncc1C(=O)N1CCOCC2(CCN(c3ccccn3)C2)C1` (stereo not given) | 15.6% | - | 13.62% | - | - |
| `CC(C(=O)NC1(C#N)CCCCC1)N1CCc2c(ncn2C2CC2)C1` (stereo not given) | -13.73% | 17.9% | -15% | -47.79% | 11.61% |
| `COCCCC1CCN([C@@H]2c3ccccc3C3(CCNCC3)[C@H]2O)CC1` | 6.557% | 16.75% | -0.7048% | -31.51% | 2.876% |
| `O=C(O)C(F)(F)F.[H][C@@]12CN(C(=O)c3ccc(C)o3)C[C@@]1([H])N(Cc1cccnc1)C(=O)CO2` | - | -2.257% | - | -54.44% | 8.167% and 22.34% |
| `COc1c(Br)cc(Cl)cc1NCc1c(C)noc1C` | 5.208% | 9.364% | 9.73% | -67.51% | 9.306% |
| `CC1CS(=O)(=O)CCN1CCCc1ccc(C(F)(F)F)cc1` (stereo not given) | 10.42% | 6.113% | -12% | - | 21% |
| `CN(Cc1ccccc1F)Cc1cc2c(cc1Br)OCCO2` | -12% | -1.309% | 0.9509% | -9.281% | 31.81% |
| `CNC(=O)c1ccc(CNc2ccncc2Cl)cc1` | 12.35% | 3.806% | -1.924% | -20.24% | -3.989% |
| `[H][C@@]12CCN(C[C@@H]1CN1CCN(C)CC1)[C@@H](CNC(=O)c1ccco1)C2` | - | 1.109% | - | -3.815% | 15.05% |
| `COCCN1C(=O)[C@H]2CC[C@@H]1CN(C(=O)Cc1c(F)cccc1Cl)C2` | 8.333% | - | -5.888% | - | - |
| `CNC(=O)c1cc(NC(=O)NCC2CCS(=O)(=O)C2)ccc1OC` (stereo not given) | 14.75% | 18.81% | 6.13% | -14.86% | -50.37% |
| `Cc1ncc(C(=O)N2CC[C@@]3(O)CCN(C4CCCCC4)C[C@H]3C2)cn1` | 14.47% | - | -8.062% | - | - |
| `O=C(COC1CCCCC1)N1CCN(C(=O)Cc2ccccn2)CC1` | 16.67% | 5.08% | 3.245% | 5.052% | 16.45% |
| `C[C@@H]1CN(CCOc2ccc(F)cc2)CC[C@@]1(O)C1CCOCC1` | 11.7% | -5.535% | -4.664% | -16.39% | 45.06% |
| `COCCN1C[C@H](NC(=O)CCC(F)(F)F)[C@@H](C(C)C)C1` | 1.639% | -2.004% | -12.57% | -0.9485% | -22.85% |
| `CCCNC(=O)Cn1nc(C(C)C)c2cnn(C(C)(C)C)c2c1=O` | 21.15% | 2.518% | 5.559% | -51.63% | 35.4% |
| `CN1CCO[C@@H]2CN(C(=O)c3ccc4ncccc4c3)CC[C@@H]2C1` | 16% | - | -3.461% | - | - |
| `c1cc(CN2CCCn3nnc(COCC4CC4)c3C2)ccn1` | 13% | -9.259% | -5.058% | -24.12% | 13.23% |
| `Cc1nc(Cn2c3c(ccc2=O)CCN(CC2CC2)CC3)cs1` | 16.24% | - | 5.563% | - | - |
| `CCC(NC(=O)Cn1ccc(=O)n(C)c1=O)c1ccccc1OC` (stereo not given) | 18.33% | 1.693% | 1.758% | -19.71% | 26.26% |
| `CCc1cnc(CNC(=O)NCCc2ccc(O)cc2)s1` | 15.29% | 11.97% | -11.24% | -22.5% | -11.11% |
| `CCNC(=O)[C@@H]1C[C@H](N)CN1C(=O)CCc1ccccc1Cl` | 7.292% | 1.379% | 7.803% | -3.561% | 26.97% |

Once more, the final 5:

structure	LiHisRS	Toxoplasma	ClpP1P2	T. brucei	Leishmania in macrophages
c1cc(CN2CCCn3nnc(COCC4CC4)c3C2)ccn1	13%	-9.259%	-5.058%	-24.12%	13.23%
Cc1nc(Cn2c3c(ccc2=O)CCN(CC2CC2)CC3)cs1	16.24%	-	5.563%	-	-
CCC(NC(=O)Cn1ccc(=O)n(C)c1=O)c1ccccc1OC (stereo not given)	18.33%	1.693%	1.758%	-19.71%	26.26%
CCc1cnc(CNC(=O)NCCc2ccc(O)cc2)s1	15.29%	11.97%	-11.24%	-22.5%	-11.11%
CCNC(=O)[C@@H]1C[C@H](N)CN1C(=O)CCc1ccccc1Cl	7.292%	1.379%	7.803%	-3.561%	26.97%